From publication PMC3547798, “Binding of Nucleoid-Associated Protein Fis to DNA Is Regulated by DNA Breathing Dynamics”
Negatives hold for the conditions tested. Protein sequences can lack the tags named with them. The comparison behind a weaker result is the experiment's own reference, which may not be listed here. The exact form of at least one protein or probe is not confirmed.

Target: T1, Fis (Escherichia coli DH5alpha) (UniProt P0A6R3)
T1 sequence (looked up): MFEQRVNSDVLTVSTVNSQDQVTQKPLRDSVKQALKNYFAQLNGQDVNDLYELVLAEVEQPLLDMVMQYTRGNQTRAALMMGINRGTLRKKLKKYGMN
Experiment: EMSA
Conditions: salmon sperm DNA, 20 mM HEPES (pH not stated), 150 mM NaCl, 500 ug/mL BSA, 1 mM DTT, 0.1 mM EDTA, 0.5-1 ug/ul salmon sperm DNA, room temperature 30 min, recombinant protein, residues 1-98, label: 5'-biotin on forward strand

Does “CGCTGTGCGTGAATTTTGCGCACGCTG (double strand) [FIS1S]” bind (complex detectable only at 0.75-1.0 uM Fis)?
Result: binds more weakly

Does “AAATTTGTTTGAATTTTGAGCAAATTT / AAATTTGCTCAGCGCCCAAACAAATTT [FIS1-FIS2 hybrid]” bind (no detectable binding up to 0.75 uM Fis)?
Result: no binding

Does “AAATTTGTTTGGGCGCTGAGCAAATTT (double strand) [FIS2m3]” bind (barely detectable even at 1.0 uM Fis, O6-methylguanine at nt 12, 13 and 15 of strand 1 (positions -2, -1, +1))?
Result: binds more weakly

Does “AAATTTGTTTGGGCGCTGAGCAAATTT (double strand) [FIS2]” bind (none at 0.25 uM, detected only at >=0.50 uM Fis)?
Result: binds more weakly
